Assay results reported in patent US20240092844.
Where a protein sequence is shown, tags need not be part of it.

What was measured:
Assay in all cases: activity in cells
[1] = tested on: T1, KLF7-Tet3 RTF (Homo sapiens); details: activates as well or better than rTetR-VP64; protein in cells; only the site is given
T1 sequence: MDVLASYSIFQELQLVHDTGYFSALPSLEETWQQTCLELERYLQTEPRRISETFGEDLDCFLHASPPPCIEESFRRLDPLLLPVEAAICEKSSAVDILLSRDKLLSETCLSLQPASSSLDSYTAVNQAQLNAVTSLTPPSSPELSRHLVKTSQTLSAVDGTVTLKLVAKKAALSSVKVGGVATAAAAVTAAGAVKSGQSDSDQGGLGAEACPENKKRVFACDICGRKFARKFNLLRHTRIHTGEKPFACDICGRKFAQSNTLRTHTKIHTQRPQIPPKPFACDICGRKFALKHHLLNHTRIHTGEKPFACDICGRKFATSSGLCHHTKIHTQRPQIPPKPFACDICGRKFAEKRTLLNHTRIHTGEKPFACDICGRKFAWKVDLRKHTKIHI

[2] = tested on: T2, ZNF324-Tet3 RTF (Homo sapiens); details: repression similar to ZIM3-Tet3; protein in cells; only the site is given
T2 sequence: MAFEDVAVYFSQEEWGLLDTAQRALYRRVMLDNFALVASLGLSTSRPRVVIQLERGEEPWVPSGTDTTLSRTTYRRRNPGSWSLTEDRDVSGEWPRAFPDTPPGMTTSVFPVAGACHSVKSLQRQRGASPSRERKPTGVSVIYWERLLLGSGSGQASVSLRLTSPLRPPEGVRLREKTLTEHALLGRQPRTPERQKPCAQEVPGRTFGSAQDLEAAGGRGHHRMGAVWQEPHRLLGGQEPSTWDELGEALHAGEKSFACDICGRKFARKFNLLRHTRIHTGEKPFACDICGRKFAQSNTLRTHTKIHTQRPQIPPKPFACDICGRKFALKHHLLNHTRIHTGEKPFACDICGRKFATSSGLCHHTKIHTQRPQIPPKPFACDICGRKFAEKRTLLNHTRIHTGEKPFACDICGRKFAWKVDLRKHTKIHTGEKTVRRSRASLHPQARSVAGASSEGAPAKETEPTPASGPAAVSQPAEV

[3] = tested on: T3, KLF6-Tet3 RTF (Homo sapiens); details: GFP reporter activation in HEK293T as well or better than rTetR-VP64; protein in cells; only the site is given
T3 sequence: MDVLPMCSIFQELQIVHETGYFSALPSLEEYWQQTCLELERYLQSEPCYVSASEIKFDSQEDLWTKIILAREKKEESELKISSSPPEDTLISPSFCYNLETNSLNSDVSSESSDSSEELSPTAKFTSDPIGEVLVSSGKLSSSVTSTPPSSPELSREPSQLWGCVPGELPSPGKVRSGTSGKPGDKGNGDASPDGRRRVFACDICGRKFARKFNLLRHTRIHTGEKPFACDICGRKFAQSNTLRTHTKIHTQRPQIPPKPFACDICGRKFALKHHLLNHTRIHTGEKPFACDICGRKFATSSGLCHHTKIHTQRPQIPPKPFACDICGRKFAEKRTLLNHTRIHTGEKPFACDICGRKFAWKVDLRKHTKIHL

[4] = tested on: T4, FOXR2-Tet3 RTF (Homo sapiens); details: activates as well or better than rTetR-VP64; protein in cells; protein details: forkhead DBD replaced by ZF array; only the site is given
T4 sequence: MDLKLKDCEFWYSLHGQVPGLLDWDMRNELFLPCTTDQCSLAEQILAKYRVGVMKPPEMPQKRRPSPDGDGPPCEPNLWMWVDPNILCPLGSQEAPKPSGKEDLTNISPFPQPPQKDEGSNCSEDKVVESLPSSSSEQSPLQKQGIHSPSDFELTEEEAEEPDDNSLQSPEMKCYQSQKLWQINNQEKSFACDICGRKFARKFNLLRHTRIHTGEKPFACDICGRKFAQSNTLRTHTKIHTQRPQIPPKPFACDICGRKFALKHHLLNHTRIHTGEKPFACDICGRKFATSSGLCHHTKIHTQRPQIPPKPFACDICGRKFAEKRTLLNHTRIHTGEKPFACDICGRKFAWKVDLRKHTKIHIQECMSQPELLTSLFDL

[5] = tested on: T5, ZXDC-Tet3 RTF (Homo sapiens); details: activates as well or better than rTetR-VP64; protein in cells; only the site is given
T5 sequence: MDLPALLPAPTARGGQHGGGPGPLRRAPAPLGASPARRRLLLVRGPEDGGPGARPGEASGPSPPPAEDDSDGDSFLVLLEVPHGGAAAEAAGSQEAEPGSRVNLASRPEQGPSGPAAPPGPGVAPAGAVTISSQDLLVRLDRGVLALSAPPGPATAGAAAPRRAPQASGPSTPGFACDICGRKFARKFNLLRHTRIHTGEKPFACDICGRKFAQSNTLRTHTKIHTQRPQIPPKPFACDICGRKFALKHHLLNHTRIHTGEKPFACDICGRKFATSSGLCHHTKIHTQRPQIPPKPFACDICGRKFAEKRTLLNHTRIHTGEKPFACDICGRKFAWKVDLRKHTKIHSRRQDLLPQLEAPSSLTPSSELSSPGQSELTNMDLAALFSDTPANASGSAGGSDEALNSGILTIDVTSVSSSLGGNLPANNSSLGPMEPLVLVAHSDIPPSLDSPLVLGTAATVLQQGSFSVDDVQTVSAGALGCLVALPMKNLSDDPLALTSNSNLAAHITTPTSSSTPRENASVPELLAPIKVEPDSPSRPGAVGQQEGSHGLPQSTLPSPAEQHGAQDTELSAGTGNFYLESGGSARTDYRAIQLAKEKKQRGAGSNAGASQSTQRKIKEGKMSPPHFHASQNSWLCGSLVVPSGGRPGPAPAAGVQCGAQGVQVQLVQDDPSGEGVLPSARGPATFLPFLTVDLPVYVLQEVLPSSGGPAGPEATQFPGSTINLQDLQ

Measured: activity on this sequence

TCTCCCTATCAGTGATAGAGA (double strand) [Tet3 rev target]
active: all assays above
